Some results were stated once for a whole list of compounds, not compound by compound.
Target: T1, HLA-A2 molecule (Homo sapiens, UniProt P04439, D140Y/D185E/D98H/E176V/E277Q/G131W/G231S/I119V/I121R/I166T/I218V/L300P/L318F/N151K/N90K/P208A/P217A/Q86G/Q94H/R138H/R169H/T345S)
T1 construct: endogenous in cells; host or cells: T2 cell line (human B and T cell hybrid), provided by Dr. J. Molldrem
Experiment: Peptide/HLA-A2 complex stability on peptide-loaded T2 cells post-brefeldin A
Assay type: binding
Conditions: native peptides, after brefeldin A treatment of peptide-pulsed T2 cells; Example 12
Experimental: The native and heteroclitic BCMA and TACI peptides were examined for HLA-A2 binding stability using the T2 cell line. T2 cells were pulsed with the respective peptide. After overnight incubation, the cells were washed to remove unbound peptide; they were evaluated for binding affinity as shown above and stability as following. The cells were incubated with 10 μg/ml Brefeldin A (Sigma) at 37° C. and 5% CO2 for 1 hour to block cell surface expression of newly synthesized HLA-A2 molecules. Peptide/HLA-A2 binding stability was evaluated at 0, 2, 4, 6 and 18 hours post-Brefeldin A treatment. Following the incubation period, the cells were harvested, washed, stained with mouse anti-human HLA-A2-FITC mAb and analyzed by flow cytometry. […] Therefore, the Heteroclitic #4 BCMA72-80 (YLMFLLRKI (SEQ ID NO: 13)) and Heteroclitic #3. […]
T2 cells were pulsed overnight with various doses of peptide plus β2-microglobulin (3 μg/ml) (Sigma, St Louis, Mo.). Following overnight incubation, the cells were stained with HLA-A2-PE mAb and analyzed using a FACSCanto™ flow cytometer (BD). Peptide/HLA-A2 complex stability was measured on peptide loaded T2 cells at 0, 2, 4, 6 and 14 hours post-brefeldin A treatment by staining with HLA-A2-PE mAb and flow cytometric analysis. […]

| Sequence | duration of HLA-A2 stability |
| --- | --- |
| AILWTCLGL [BCMA54-62 (AILWTCLGL), native BCMA peptide] | greater than 6 hours |
| VLMFLLRKI [BCMA72-80 (VLMFLLRKI), native BCMA peptide] | greater than 6 hours |
